Test results reported in publication doi:10.1101/2024.01.10.575035.
Results are given in words; binding and its absence hold for the method and conditions named. Binding seen in cells or lysates may run through a third protein. Some results given as binding are weak or reduced against the parent protein; the word gives no strength.

Chains of the proteins cited; added tags and fusions are not shown.
UniProt O00459: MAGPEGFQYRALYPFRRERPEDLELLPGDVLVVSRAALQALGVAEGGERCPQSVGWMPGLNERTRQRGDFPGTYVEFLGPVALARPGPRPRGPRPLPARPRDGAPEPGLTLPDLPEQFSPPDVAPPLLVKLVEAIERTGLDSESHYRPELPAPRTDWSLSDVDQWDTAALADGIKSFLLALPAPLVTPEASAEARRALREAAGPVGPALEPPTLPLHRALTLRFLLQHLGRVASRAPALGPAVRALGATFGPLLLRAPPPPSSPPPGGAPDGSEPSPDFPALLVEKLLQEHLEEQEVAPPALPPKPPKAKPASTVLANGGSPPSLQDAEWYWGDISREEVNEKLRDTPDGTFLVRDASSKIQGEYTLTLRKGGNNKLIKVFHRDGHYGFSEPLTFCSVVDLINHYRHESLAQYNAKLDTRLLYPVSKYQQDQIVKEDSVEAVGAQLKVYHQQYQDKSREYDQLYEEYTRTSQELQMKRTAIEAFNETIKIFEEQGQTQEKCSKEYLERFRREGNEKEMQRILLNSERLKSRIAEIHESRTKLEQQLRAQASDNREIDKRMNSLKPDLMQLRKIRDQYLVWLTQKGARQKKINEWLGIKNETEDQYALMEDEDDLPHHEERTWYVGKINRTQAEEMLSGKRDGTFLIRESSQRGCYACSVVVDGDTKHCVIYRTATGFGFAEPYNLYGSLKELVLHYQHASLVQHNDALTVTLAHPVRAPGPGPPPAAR
UniProt P27816: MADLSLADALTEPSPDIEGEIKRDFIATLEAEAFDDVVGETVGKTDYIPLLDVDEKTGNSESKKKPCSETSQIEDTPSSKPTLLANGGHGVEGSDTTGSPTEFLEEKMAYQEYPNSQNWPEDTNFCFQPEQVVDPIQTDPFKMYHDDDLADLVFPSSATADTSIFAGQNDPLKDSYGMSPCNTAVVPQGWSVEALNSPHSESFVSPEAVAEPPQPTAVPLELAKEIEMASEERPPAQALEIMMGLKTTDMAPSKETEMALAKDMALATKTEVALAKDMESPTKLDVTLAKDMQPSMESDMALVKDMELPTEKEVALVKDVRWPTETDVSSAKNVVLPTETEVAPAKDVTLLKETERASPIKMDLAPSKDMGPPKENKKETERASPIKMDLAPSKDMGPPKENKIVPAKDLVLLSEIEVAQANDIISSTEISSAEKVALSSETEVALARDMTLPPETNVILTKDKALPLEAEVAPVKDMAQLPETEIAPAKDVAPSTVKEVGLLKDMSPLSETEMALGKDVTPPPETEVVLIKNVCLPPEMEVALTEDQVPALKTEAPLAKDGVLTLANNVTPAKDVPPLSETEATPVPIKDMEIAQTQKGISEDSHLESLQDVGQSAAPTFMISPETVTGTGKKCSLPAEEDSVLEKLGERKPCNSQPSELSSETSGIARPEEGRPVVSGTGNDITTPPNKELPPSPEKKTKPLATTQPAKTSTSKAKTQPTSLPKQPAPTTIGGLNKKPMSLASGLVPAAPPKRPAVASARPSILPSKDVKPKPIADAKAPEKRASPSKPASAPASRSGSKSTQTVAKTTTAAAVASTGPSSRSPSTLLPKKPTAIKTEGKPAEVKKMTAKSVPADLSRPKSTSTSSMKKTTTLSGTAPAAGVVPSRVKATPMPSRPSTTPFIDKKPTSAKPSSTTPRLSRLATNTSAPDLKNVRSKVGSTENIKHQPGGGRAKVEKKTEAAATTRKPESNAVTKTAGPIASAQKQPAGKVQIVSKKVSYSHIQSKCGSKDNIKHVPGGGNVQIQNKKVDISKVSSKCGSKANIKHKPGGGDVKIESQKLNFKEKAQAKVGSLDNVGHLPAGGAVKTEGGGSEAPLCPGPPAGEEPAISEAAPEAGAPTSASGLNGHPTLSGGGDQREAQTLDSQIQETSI

What was measured:
[1] = molecular target: HA-tagged wild-type p110α (stably expressed in MDA-MB-231) (human) (UniProt P42336); test: co-IP
[2] = molecular target: p110α catalytic subunit (endogenous, MDA-MB-231) (human (endogenous in MDA-MB-231)) (UniProt P42336); test: co-IP
[3] = molecular target: p110α catalytic subunit (endogenous, MDA-MB-231) (human (endogenous in MDA-MB-231)) (UniProt P42336); test: proximity ligation

binding [1]	binding [2]	binding [3]	Substance
binds	–	–	EGFR (endogenous, MDA-MB-231) (from UniProt P00533 25-1210) (receptor)
–	binds	–	p85β adaptor subunit (endogenous, MDA-MB-231) (from UniProt O00459 1-728)
–	binds	binds	microtubule-associated protein 4 (MAP4) (endogenous, MDA-MB-231) (from UniProt P27816 1-1152)
